For 4 molecules, binding results are on record in PMC10182070, “Ligand dependent interaction between PC-TP and PPARδ mitigates diet-induced hepatic steatosis in male mice” (Nature Communications, 2023).

Chains of the proteins cited; added tags and fusions are not shown. Lines headed by an entry give the natural chain unless they say otherwise; changes in a name come on top.
UniProt Q03181: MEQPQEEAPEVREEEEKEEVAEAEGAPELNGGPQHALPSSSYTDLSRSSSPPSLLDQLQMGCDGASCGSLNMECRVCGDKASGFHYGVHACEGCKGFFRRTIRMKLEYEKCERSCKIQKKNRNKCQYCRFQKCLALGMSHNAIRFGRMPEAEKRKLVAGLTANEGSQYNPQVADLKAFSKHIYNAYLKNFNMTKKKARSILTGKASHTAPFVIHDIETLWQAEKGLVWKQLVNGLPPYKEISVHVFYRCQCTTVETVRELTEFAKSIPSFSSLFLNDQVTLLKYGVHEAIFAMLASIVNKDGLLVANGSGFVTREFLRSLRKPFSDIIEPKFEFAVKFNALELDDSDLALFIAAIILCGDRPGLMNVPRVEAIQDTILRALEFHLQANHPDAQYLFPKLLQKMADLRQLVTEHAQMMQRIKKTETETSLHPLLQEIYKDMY
UniProt Q01469: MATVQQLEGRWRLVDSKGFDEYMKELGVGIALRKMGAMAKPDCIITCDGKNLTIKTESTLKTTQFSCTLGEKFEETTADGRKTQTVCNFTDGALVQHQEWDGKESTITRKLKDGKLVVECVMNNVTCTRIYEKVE

No constants are given. Whether binding was seen depends on the method and setting. Binding seen in cells or lysates may run through a third protein. Some binding calls cover weakened binding; strength is not graded here. Where a sequence is shown, tags or fusion partners need not be part of it.

For experiment [1], the target named is full-length PPARδ, split nano-luciferase (nano-PCA) fusion (human) (UniProt Q03181). Briefly: split reporter; nano-PCA in transfected Huh7 cells (100 ng/well of each fusion); fresh culture media or DMEM F-12 with 0.5% serum (mutant panel in 0.5% serum); signal normalized to the highest negative control.
Experiment [2] has as its target Venus-PPARδ (human) (UniProt Q03181). Briefly: FRET or BRET; BRET in transfected Huh7 cells, nLuc donor and Venus acceptor; full culture media or 0.5% serum (serum starvation). A general note: Bioluminescence resonance energy transfer reports proximity on the nanometre scale.
Experiment [3] has as its target full-length PPARδ, split nano-luciferase (nano-PCA) fusion (human) (UniProt Q03181). Briefly: split reporter; nano-PCA (split nano-luciferase) screen of LTPs against PPARs in transfected HEK293T cells; interactions for each PPAR isoform normalized to the highest interaction; n = 1 biological replicate.
The target in experiment [4] is Venus-PPARδ (human) (UniProt Q03181). Briefly: condition: only cells cultured in MCD media (depleted of methionine and choline); FRET or BRET; BRET in transfected Huh7 cells cultured in DMEM F-12 depleted of methionine and choline (MCD media).

“FABP5, split nano-luciferase (nano-PCA) fusion (from UniProt Q01469 1-135)”: in experiment [1], the binding entry is on record as “binds”.
In the case of “FABP5, BRET fusion (from UniProt Q01469 1-135)”, in the experiment with Venus-PPARδ (human) [2], the binding entry is listed as “binds”.

B1: phosphatidylcholine transfer protein (PC-TP), wild type, split nano-luciferase (nano-PCA) fusion (protein, UniProt Q9UKL6 1-214)
chain: MELAAGSFSEEQFWEACAELQQPALAGADWQLLVETSGISIYRLLDKKTGLYEYKVFGVLEDCSPTLLADIYMDSDYRKQWDQYVKELYEQECNGETVVYWEVKYPFPMSNRDYVYLRQRRDLDMEGRKIHVILARSTSMPQLGERSGVIRVKQYKQSLAIESDGKKGSKVFMYYFDNPGGQIPSWLINWAAKNGVPNFLKDMARACQNYLKKT
In the case of B1, the binding entry in experiment [3] and in experiment [1] was “binds” in each case.

B2: nano-Luciferase (nLuc)-PC-TP (protein, UniProt Q9UKL6 1-214)
chain: MELAAGSFSEEQFWEACAELQQPALAGADWQLLVETSGISIYRLLDKKTGLYEYKVFGVLEDCSPTLLADIYMDSDYRKQWDQYVKELYEQECNGETVVYWEVKYPFPMSNRDYVYLRQRRDLDMEGRKIHVILARSTSMPQLGERSGVIRVKQYKQSLAIESDGKKGSKVFMYYFDNPGGQIPSWLINWAAKNGVPNFLKDMARACQNYLKKT
For B2, the values for the binding result with Venus-PPARδ (human) [4] and in the experiment with Venus-PPARδ (human) [2] were “no binding” and “binds”, respectively.
